# PMC4180072
# For at least one entry, the source does not settle the construct or the ends of the probe. Results from cells or extracts need not show a direct contact. For part of these data: A negative result means that nothing was seen under these conditions. Tags and fusion partners may be left off the protein sequences shown.
# Legend:
# [1] = molecular target: T1, SMAD4 (HPNE nuclear extract) (Homo sapiens (HPNE cells)) (UniProt Q13485); experiment: EMSA; conditions: band inhibited by anti-SMAD4, quenched by 25-fold WT oligo; EMSA with nuclear extracts; 25-fold competitor; pH and temperature not stated; protein in an …
# T1 sequence (looked up, limits assumed): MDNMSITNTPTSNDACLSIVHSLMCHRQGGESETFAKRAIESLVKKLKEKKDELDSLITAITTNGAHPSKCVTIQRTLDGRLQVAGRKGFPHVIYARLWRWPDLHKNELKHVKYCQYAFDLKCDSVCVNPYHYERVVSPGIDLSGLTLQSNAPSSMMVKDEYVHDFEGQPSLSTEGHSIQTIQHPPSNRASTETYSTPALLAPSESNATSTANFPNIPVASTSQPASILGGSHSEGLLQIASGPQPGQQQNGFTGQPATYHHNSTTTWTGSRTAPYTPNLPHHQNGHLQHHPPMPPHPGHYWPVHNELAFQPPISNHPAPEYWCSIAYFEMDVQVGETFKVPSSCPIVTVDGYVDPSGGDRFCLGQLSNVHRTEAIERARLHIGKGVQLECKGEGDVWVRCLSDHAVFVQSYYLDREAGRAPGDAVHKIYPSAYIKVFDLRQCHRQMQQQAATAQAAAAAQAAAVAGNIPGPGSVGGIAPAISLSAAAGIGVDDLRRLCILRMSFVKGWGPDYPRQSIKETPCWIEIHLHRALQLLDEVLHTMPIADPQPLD
# [2] = molecular target: T2, SMAD4 (PANC-1 nuclear extract) (Homo sapiens (PANC-1 cells)) (UniProt Q13485); experiment: competition with a labelled probe; conditions: mutant competitor vs oligo 2 probe; EMSA with nuclear extracts; 25-fold competitor; pH and temperature not stated; protein in an extract
# T2 sequence (looked up, limits assumed): T1 sequence (looked up, limits assumed)
# [3] = molecular target: T1, SMAD4 (HPNE nuclear extract) (Homo sapiens (HPNE cells)); experiment: competition with a labelled probe; conditions: EMSA with nuclear extracts, 25-fold competitor, pH and temperature not stated, protein in an extract
# [4] = molecular target: T2, SMAD4 (PANC-1 nuclear extract) (Homo sapiens (PANC-1 cells)); experiment: EMSA; conditions: band inhibited by anti-SMAD4, quenched by WT oligo 2; EMSA with nuclear extracts; 25-fold competitor; pH and temperature not stated; protein in an extract
sequence,measurement,setting,value
TTCCTGTGAATACTTTGTCTAGACTT (double strand) [CDH2 SBE oligo 4 WT],binding result,[1],binds
TCTTAAAACAAGTAATGCTTTGAGCA (double strand) [CDH2 SBE oligo 2 mutant],binding result,[2],no binding
same,binding result,[3]; 25-fold mutant competitor vs oligo 2 probe,no binding
TTCCTGTGAATACTTTAAAAAGACTT (double strand) [CDH2 SBE oligo 4 mutant],binding result,[3]; 25-fold mutant competitor vs oligo 4 probe,no binding
CGAGCGCCTCAGACAACAATAGCTAG (double strand) [CDH2 SBE oligo 2 WT],binding result,[4],binds
same,binding result,[1],binds
